Data as given in PubChem BioAssay AID602196 (INSERM, 2012).
The deposit covers about 23,000 reagents; this is an unselected part. 455 of them (2%) were called active. 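Active includes both protection and sensitisation; some change values fall well beyond the stated -50 to +50 range.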 Further read-outs or replicates are left out here. The record does not give: the amount of reagent.

- Test: 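Knock-downs that protect lung cancer cells from cisplatin or sensitise them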
- Cell system: human A549 lung cancer cells
- Reagent: siRNA pair against human genes
- Timing: 48 h transfection before cisplatin; time from cisplatin to read-out not stated
- Challenge: cisplatin at a dose killing half of control-siRNA cells; exact dose and duration not given
- Detection: 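Shift in cisplatin death relative to control siRNA, from -50 (all cells die) to +50 (no cells die); siRNAs harmful on their own scored 0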
- Scale: two-siRNA summed score (-2 to +2): higher = both siRNAs protect from cisplatin killing; -2 means both sensitise
- Active means: 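siRNAs harmful alone (LDH or WST-1) get 0; others get +1 for less and -1 for more cisplatin killing; genes are active when the two siRNAs give the same sign, summing to ±2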
- Calls: active = both siRNAs shift cisplatin killing the same way; inactive = no consistent shift, or siRNA harmful alone

| two-siRNA summed score (-2 to +2) | outcome | gene symbol |
| --- | --- | --- |
| 0 | inactive | GABRR1 (GeneID 2569) |
| 0 | inactive | PRMT1 (GeneID 3276) |
| 0 | inactive | PEDS1-UBE2V1 (GeneID 387522) |
| 0 | inactive | TATDN1 (GeneID 83940) |
| 1 | inactive | RAB4A (GeneID 5867) |
| 1 | inactive | LOC400660 |
| 1 | inactive | ASAP2 (GeneID 8853) |
| 0 | inactive | LOC283551 |
| 0 | inactive | GAS1 (GeneID 2619) |
| 1 | inactive | ANKFY1 (GeneID 51479) |
| -1 | inactive | EZR (GeneID 7430) |
| -1 | inactive | METAP1 (GeneID 23173) |
| 0 | inactive | ZNF519 (GeneID 162655) |
| -1 | inactive | PSMA8 (GeneID 143471) |
| 0 | inactive | LINC02487 (GeneID 441178) |

Copied from the entries so far for reference:
| two-siRNA summed score (-2 to +2) | outcome | gene symbol |
| --- | --- | --- |
| 0 | inactive | GAS1 (GeneID 2619) |
| 1 | inactive | ANKFY1 (GeneID 51479) |

Next entries:
| two-siRNA summed score (-2 to +2) | outcome | gene symbol |
| --- | --- | --- |
| 1 | inactive | OXT (GeneID 5020) |
| 0 | inactive | FLJ41821 |
| 1 | inactive | LOC440047 (retired record) (GeneID 440047) |
| 0 | inactive | OR6A2 (GeneID 8590) |
| -1 | inactive | KCNG1 (GeneID 3755) |
| 0 | inactive | LOC440785 |
| -1 | inactive | GMNN (GeneID 51053) |
| 0 | inactive | DSP (GeneID 1832) |
